# Literature values as cited in US20190307762A1, “METHODS AND COMPOSITIONS FOR THE TREATMENT OF TRAUMA AND STRESSOR-RELATED DISORDERS” (priority 2016, published 2019).
# At least one structure is not confirmed: it was looked up by name or label, or the drawing left a doubt.
structure (smiles),measurement,setting,value
C[C@]12CCC(=O)C=C1CC[C@H]1[C@@H]3CC[C@](O)(C(=O)CO)[C@@]3(C)C[C@H](O)[C@@]12F [Fludrocortisone],Equivalent amount,dose equivalent to 20 mg hydrocortisone,0.05 mg
same,Hydrocortisone equivalent (1 mg of the glucocorticoid corresponds to the listed amount in mg of hydrocortisone),per 1 mg of the glucocorticoid,400 mg
